Values from PubChem BioAssay AID504784 (Drosophila RNAi Screening Center, 2011).
Aim: 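Fly genes whose silencing alters how much lipid cells keep in droplets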 (primary screen). System: Drosophila Kc167 embryonic cells. Knock-down reagent: long dsRNA against Drosophila genes, about 250 ng dsRNA per well. Timing: 4 days. Conditions: cells fed 400 µM oleic acid bound to BSA. Read-out: 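Cells imaged and segmented; ratio of lipid droplet area to nuclear area, log-transformed, then normalised as a B-score over the screen; higher means more stored lipid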. Reading the numbers: droplet/nuclear area B-score: higher = more stored lipid (overstorage).
In all, the deposit lists about 17,000 reagents; this is a random part of those that have a named target and a result. 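Each column is one replicate's B-score; the combined score over replicates was not deposited, so single values may mislead.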 A plus sign joins genes that one reagent is predicted to hit. Further read-outs or replicates are left out here.

After knock-down of Alg7 [DRSC02833] the results were droplet/nuclear area B-score, replicate 1 = 0.338. Depletion of Alg7 [DRSC02834] gave: droplet/nuclear area B-score, replicate 1 = -0.523. After knock-down of Pgant8 [DRSC10801], the screen gave droplet/nuclear area B-score, replicate 1 = -0.959. With knock-down of CG31612 [DRSC03697], the record shows droplet/nuclear area B-score, replicate 1 = 1.2. Depletion of CG31612 [DRSC03698] resulted in: droplet/nuclear area B-score, replicate 1 = -0.691. With knock-down of CG31224 [DRSC15272], the screen gave droplet/nuclear area B-score, replicate 1 = 4.35.

CG31224 [DRSC16290] gave droplet/nuclear area B-score, replicate 1 = 1.76. Against Npc2h [DRSC14297], the entry reads droplet/nuclear area B-score, replicate 1 = -0.817. With knock-down of CG7289 [DRSC00697], the record shows droplet/nuclear area B-score, replicate 1 = 1. With knock-down of meigo [DRSC15877] the results were droplet/nuclear area B-score, replicate 1 = 0.804. With knock-down of Mnt [DRSC17894], the screen gave droplet/nuclear area B-score, replicate 1 = 1.32. Mnt [DRSC18480] gave droplet/nuclear area B-score, replicate 1 = -3.25.

With knock-down of Gr89a [DRSC15023], the record shows droplet/nuclear area B-score, replicate 1 = 2.1. Cdc2rk [DRSC07590] gave droplet/nuclear area B-score, replicate 1 = -0.704. For CG1146 [DRSC08189], the values are droplet/nuclear area B-score, replicate 1 = 0.525. Depletion of CkIIbeta [DRSC20230] resulted in: droplet/nuclear area B-score, replicate 1 = -3.56. scat [DRSC02722] scored droplet/nuclear area B-score, replicate 1 = -0.0808. After knock-down of RpLP0 [DRSC11878], the record shows droplet/nuclear area B-score, replicate 1 = 5.69.

For RpLP0 [DRSC22110] the deposit lists droplet/nuclear area B-score, replicate 1 = -0.597. For CG10959 [DRSC17769], the entry reads droplet/nuclear area B-score, replicate 1 = 2.99. Or67a [DRSC11240] showed droplet/nuclear area B-score, replicate 1 = -0.513. Ddr [DRSC02150] scored droplet/nuclear area B-score, replicate 1 = 0.489. After knock-down of Ddr [DRSC03229] the results were droplet/nuclear area B-score, replicate 1 = 2.08. For Ddr [DRSC03230], the values are droplet/nuclear area B-score, replicate 1 = -1.16.

With knock-down of Ddr [DRSC22818] the results were droplet/nuclear area B-score, replicate 1 = -1.28. Knock-down of CG42380 + CG42379 + PIG-M + 1 more [DRSC03884] came out at: droplet/nuclear area B-score, replicate 1 = 3.49. CG42380 + CG42379 + PIG-M + 1 more [DRSC04580] gave droplet/nuclear area B-score, replicate 1 = 1.16. With knock-down of CG42747 [DRSC10209], the screen gave droplet/nuclear area B-score, replicate 1 = -0.289. For CG42747 [DRSC10210], the entry reads droplet/nuclear area B-score, replicate 1 = 1.7. After knock-down of Dbp21E2 [DRSC00616], the screen gave droplet/nuclear area B-score, replicate 1 = 0.113.

For Dys + snoRNA:Me18S-A1374 [DRSC16232] the deposit lists droplet/nuclear area B-score, replicate 1 = 1.44. For croc [DRSC11884] the deposit lists droplet/nuclear area B-score, replicate 1 = 0.401. After knock-down of CG6791 [DRSC16118] the results were droplet/nuclear area B-score, replicate 1 = -2.89. Knock-down of CG11333 [DRSC14301] resulted in: droplet/nuclear area B-score, replicate 1 = -0.828. CG9973 (retired record) [DRSC08646] scored droplet/nuclear area B-score, replicate 1 = -0.326. Knock-down of Pkd2 [DRSC02962] gave: droplet/nuclear area B-score, replicate 1 = 0.404.

After knock-down of ctrip [DRSC12242], the screen gave droplet/nuclear area B-score, replicate 1 = -2.05. Against ctrip [DRSC12287], the entry reads droplet/nuclear area B-score, replicate 1 = -1.61. ctrip [DRSC22449] gave droplet/nuclear area B-score, replicate 1 = -3.03. CG3610 [DRSC15502] gave droplet/nuclear area B-score, replicate 1 = 0.522.
